# Primary screen of a compound library

Protein sequences, listed by entry. Tags and fused reporters are not part of them. Residues count along the entry.
UniProt Q4DA54, 1-478: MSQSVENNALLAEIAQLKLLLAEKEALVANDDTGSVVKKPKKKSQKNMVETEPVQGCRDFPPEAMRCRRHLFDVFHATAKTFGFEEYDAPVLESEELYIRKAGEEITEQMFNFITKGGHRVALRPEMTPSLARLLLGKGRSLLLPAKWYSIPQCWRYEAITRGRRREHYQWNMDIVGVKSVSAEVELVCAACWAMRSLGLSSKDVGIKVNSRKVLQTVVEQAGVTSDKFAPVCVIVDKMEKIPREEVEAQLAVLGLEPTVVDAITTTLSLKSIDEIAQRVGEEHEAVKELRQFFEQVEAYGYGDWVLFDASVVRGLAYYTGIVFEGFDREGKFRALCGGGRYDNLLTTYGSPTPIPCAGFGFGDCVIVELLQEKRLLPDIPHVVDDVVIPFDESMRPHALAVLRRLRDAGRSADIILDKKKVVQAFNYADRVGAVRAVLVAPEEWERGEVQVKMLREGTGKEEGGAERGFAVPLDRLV
UniProt P9WPC5, whole entry: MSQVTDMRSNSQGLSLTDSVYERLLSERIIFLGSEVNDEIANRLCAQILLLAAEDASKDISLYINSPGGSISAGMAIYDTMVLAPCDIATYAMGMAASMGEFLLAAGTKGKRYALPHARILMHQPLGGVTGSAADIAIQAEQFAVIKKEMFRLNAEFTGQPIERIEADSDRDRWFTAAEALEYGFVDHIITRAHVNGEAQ
UniProt P9WPC3, whole entry partner: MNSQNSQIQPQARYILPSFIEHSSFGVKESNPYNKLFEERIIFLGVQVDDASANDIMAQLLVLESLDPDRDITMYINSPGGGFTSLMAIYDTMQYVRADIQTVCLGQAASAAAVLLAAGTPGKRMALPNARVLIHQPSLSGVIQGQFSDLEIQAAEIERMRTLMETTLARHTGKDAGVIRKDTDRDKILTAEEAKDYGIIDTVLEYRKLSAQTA
UniProt Q8IDJ8, 1-583: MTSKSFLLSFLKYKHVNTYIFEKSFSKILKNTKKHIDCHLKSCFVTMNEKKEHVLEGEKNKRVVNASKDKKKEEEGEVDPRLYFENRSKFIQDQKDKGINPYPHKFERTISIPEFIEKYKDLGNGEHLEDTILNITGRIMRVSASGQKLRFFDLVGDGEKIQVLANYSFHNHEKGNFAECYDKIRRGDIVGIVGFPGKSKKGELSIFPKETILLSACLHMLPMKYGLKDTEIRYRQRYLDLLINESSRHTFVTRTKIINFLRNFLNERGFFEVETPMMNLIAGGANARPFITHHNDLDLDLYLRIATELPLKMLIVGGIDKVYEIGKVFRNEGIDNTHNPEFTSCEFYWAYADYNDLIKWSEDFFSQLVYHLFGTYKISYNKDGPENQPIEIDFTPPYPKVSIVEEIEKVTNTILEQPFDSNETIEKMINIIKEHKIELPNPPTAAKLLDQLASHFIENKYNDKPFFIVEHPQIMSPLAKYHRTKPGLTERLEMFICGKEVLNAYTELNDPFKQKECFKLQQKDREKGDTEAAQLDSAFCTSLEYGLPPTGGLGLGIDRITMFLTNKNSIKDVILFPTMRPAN
UniProt A4I591, 1-473: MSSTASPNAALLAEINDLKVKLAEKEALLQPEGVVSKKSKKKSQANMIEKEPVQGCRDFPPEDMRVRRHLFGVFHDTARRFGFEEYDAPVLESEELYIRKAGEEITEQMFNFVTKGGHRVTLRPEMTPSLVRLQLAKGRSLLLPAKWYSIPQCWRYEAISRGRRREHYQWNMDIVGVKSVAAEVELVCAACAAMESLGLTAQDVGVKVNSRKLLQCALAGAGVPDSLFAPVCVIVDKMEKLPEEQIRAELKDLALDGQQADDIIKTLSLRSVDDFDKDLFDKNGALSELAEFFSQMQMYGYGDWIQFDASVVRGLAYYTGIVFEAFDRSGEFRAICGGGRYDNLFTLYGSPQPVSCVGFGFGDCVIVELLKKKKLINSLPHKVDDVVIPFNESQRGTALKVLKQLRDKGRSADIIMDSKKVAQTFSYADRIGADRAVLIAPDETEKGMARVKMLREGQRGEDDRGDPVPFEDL

From ChEMBL document CHEMBL3988442, “University of Dundee, Small-Polar-MMV Screening Library” (2021).

Values are the deposited “Percent Effect”, in %. How 0% and 100% were set is not recorded. Most values in the screen are low, and negative values occur. Compounds were drawn at random from those tested, without regard to their results.

TcHisRS: 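Histidine-tRNA ligase, Trypanosoma cruzi CL Brener (UniProt Q4DA54). Enzyme assay of histidyl-tRNA synthetase; the read-out is not stated. Compounds at 30 µM. Direction is inferred from retests: higher values go with stronger inhibition. Of about 69,000 compounds tested this way, about 31 (0.045%) reached 50% or more in at least one test.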
ClpP1P2: 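Protease assay of ClpP1P2, read by the AMC dye that it sets free. Target: ClpP1P2, Mycobacterium tuberculosis (UniProt P9WPC5 and UniProt P9WPC3). Concentration: 50 µM. Higher reads as stronger inhibition, judged from the few compounds that gave an IC50. Most other retested compounds had strongly negative values. About 69,000 compounds were tested under these conditions; 0.015% (about 10) showed 50% or more at least once.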
PfKRS1: 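Lysine-tRNA ligase, Plasmodium falciparum 3D7 (UniProt Q8IDJ8). Enzyme assay of the cytosolic lysyl-tRNA synthetase in 384-well plates, read by luminescence. Compounds at 30 µM. Higher reads as stronger inhibition, judged from the few compounds that gave an IC50. Of about 69,000 compounds tested this way, about 49 (0.071%) reached 50% or more in at least one test.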
LiHisRS: 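Enzyme assay of histidyl-tRNA synthetase; the read-out is not stated. Target: Histidine-tRNA ligase, Leishmania infantum (UniProt A4I591). Compounds at 30 µM. Higher reads as stronger inhibition (inferred: compounds with an IC50 in retests scored well above the rest). The assay is labelled LdHisRS but filed under L. infantum. About 69,000 compounds were tested under these conditions; 0.6% (about 410) showed 50% or more at least once.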

- CCOCC1CN(S(C)(=O)=O)Cc2cnn(CC3CCOCC3)c21 (stereo not shown) | TcHisRS: 7.104%; ClpP1P2: 2.474%; PfKRS1: 5.771%; LiHisRS: 19.61%
- Cc1nnsc1C(=O)N1CCCCC1c1cc2nc(C)c(C)c(O)n2n1 (stereo not shown) | TcHisRS: 5.639%; ClpP1P2: -19.01%; PfKRS1: 2.136%; LiHisRS: 11.35%
- CC(Cn1ccnc1)NC(=O)Cc1ccc2c(c1)OCCO2 (stereo not shown) | TcHisRS: 4.611%; ClpP1P2: -32.52%; PfKRS1: 1.8%; LiHisRS: 5.357%
- Cc1ccc2nc(CN3CCN(C4CCCCC4)C(=O)C3)cc(O)c2c1 | TcHisRS: 17.35%; ClpP1P2: 4.983%; PfKRS1: 4.78%; LiHisRS: 34.29%
- CCOCC1CN(Cc2ccc(OC)cc2)Cc2nn(CC3CC3)cc21 (stereo not shown) | TcHisRS: 0%; ClpP1P2: 0.1585%; PfKRS1: 60.29%; LiHisRS: -2.564%
- O=C(C1CCC1)N1CCC2(CC1)CNCCO2 | TcHisRS: 7.362%; ClpP1P2: -2.677%; PfKRS1: -1.087%; LiHisRS: 10.26%
- CCn1nccc1CNc1[nH]cnc2nncc1-2 | TcHisRS: 7.921%; ClpP1P2: 4.018%; PfKRS1: -1.345%; LiHisRS: 9.524%
- COc1cccc(-c2noc(-c3ccc(N4CC(N)C4)nc3)n2)c1OC | TcHisRS: 6.704%; ClpP1P2: 3.98%; PfKRS1: 7.363%; LiHisRS: 15.62%
- O=C(N[C@@H]1CN(Cc2cccs2)[C@@H]2COC[C@@H]21)C1CCC1 | TcHisRS: 2.151%; ClpP1P2: -6.997%; PfKRS1: 0.1847%; LiHisRS: 7.965%
- Cc1noc(C)c1CN1CCN(CCN(C)C)c2ncccc2C1 | TcHisRS: 3.743%; ClpP1P2: 6.471%; PfKRS1: -0.7344%; LiHisRS: 23.08%
- CN1CCC2(CC1)CN(C(=O)c1ccncc1)Cc1ccccc12 | TcHisRS: 9.244%; ClpP1P2: 1.2%; PfKRS1: 6.063%; LiHisRS: 11.93%
- COCc1cccc(CNCc2c(C(C)C)nn(C)c2N(C)C)c1 | TcHisRS: 7.059%; ClpP1P2: -33.16%; PfKRS1: 2.108%; LiHisRS: 22.02%
- CS(=O)(=O)CCN(CC1CCCO1)C1CCCC1 (stereo not shown) | TcHisRS: 1.961%; ClpP1P2: 4.345%; PfKRS1: -1.743%; LiHisRS: 10.92%
- CCc1nc(C2CCCN(C(=O)C3=NN(CC)C(=O)CC3)C2)no1 (stereo not shown) | TcHisRS: -0.6024%; ClpP1P2: -7.772%; PfKRS1: -2.857%; LiHisRS: 8.791%
- COc1ccc(-c2ccnc3nc(N4CCCCC4)[nH]c(=O)c23)cc1 | TcHisRS: 2.959%; ClpP1P2: 1.067%; PfKRS1: 2.848%; LiHisRS: 15.17%
- COc1ccc(C2CC(=O)Nc3c2cnn3C2CCCC2)cc1 (stereo not shown) | TcHisRS: 4.132%; ClpP1P2: 5.035%; PfKRS1: 2.107%; LiHisRS: 11.43%